# PubChem BioAssay AID504444 (National Center for Advancing Translational Sciences (NCATS), 2011)
# Among all 360,000 compounds or so, about 7,500 (2.1%) were called active. Inconclusive results, whose numbers are uncertain, are shown with a selection of clear calls. Calls come from the whole dose curve; as a rule, active = well fitted inhibition curve with a large enough effect; inconclusive = small, poorly fitted or top-dose-only effect, or effect the other way; inactive = flat fitted curve, though single readings scatter. Where the call is inconclusive, the potency comes from a doubtful curve fit.
# Experiment: Nrf2 qHTS screen for inhibitors; note: nearly all actives have a fitted effect of over 60% in size
# Settings: A549 ARE-Fluc reporter, luciferase luminescence, 18-24 h; activity change, negative = inhibition: at 46 µM (top of the series)
# In short: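 A549 ARE_Fluc cells, 5000/well, 5% FBS OPTI-MEM; compounds in dose-response, 18-24 h at 37 °C/5% CO2; CellTiter-Fluor viability read (Ex 405/Em 525), then BugLite luciferase luminescence = Nrf2 activity.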
# % is set by controls: 0 for no effect and ±100 for the full control effect; potency is the fitted concentration of half-maximal effect.
SMILES,"activity change, negative = inhibition",Potency
CCn1c(COc2ccccc2C)nnc1SCC(=O)OC,inactive: 7.76%,
CCN(CC)c1ccc2cc(-c3nc4sc5c(c4c(=O)[nH]3)CCC(C(C)(C)C)C5)c(=O)oc2c1 (stereo not drawn),inactive: 10.1%,
CCN1C(=O)c2cccc3c(S(=O)(=O)Nc4ncccc4C)ccc1c23,,"inconclusive: 23.1 µM [falling, partial curve]"
CC(C)(C)n1ncc2c(=O)n(CC(=O)NCc3ccccc3Cl)cnc21,,"inconclusive: 0.58 µM [activator, full curve, poor fit]"
CCN(CC)c1ccc(C(=O)OCC(=O)Nc2ncccn2)cc1,,"inconclusive: 29.1 µM [falling, single point]"
CCCOc1ccc(C(=O)CCNc2cccc(Cl)c2)cc1,,"inconclusive: 9.2 µM [falling, single point]"
CC(=NNC(=S)Nc1ccccc1Cl)c1ccccn1,,"inconclusive: 2.59 µM [falling, full curve, poor fit]"
COc1ccc(CC(=O)Nc2nc3c(s2)CCCC3)cc1,,"inconclusive: 13 µM [activator, partial curve]"
CCOc1cccc2sc(N(CCCN(C)C)C(=O)c3ccc(S(=O)(=O)N(CC)Cc4ccccc4)cc3)nc12,,"inconclusive: 29.1 µM [falling, single point]"
O=C(NC1CCCC1)c1ccccc1-c1nc2ccccc2[nH]1,,"inconclusive: 1.64 µM [falling, partial curve, poor fit]"
COc1ccccc1C(=O)Nc1cccc(Oc2c(F)c(F)c(F)c(F)c2F)c1,inactive: -23.8%,
C=CCOn1c(C)c(C(C)=O)c2c3nonc3ccc21,,"inconclusive: 14.6 µM [falling, partial curve]"
O=C(Cn1nnc(-c2ccccc2NC(=O)c2ccccc2F)n1)NCc1ccco1,inactive: -4.26%,
O=C(Nc1nnc(CCN2CCCCC2)s1)c1ccccc1,,"inconclusive: 29.1 µM [activator, single point]"
O=c1oc2ccccc2cc1-c1cn2cc(Cc3cc(Cl)ccc3Cl)sc2n1,,"inconclusive: 0.206 µM [falling, partial curve, poor fit]"
O=[N+]([O-])c1ccc(S(=O)Cc2ccccc2)c([N+](=O)[O-])c1 (stereo not drawn),,"inconclusive: 18.4 µM [falling, partial curve, poor fit]"
Cc1noc(C)c1-c1ccc2ncnc(NCc3ccccc3F)c2c1,,active: 20.6 µM
O=C(Nc1ccc(Cl)cc1Cl)c1ccc(Br)o1,,"inconclusive: 23.1 µM [activator, single point]"
COc1ccc(NC(=O)C2CCCN(S(=O)(=O)c3ccc(F)cc3)C2)cc1 (stereo not drawn),inactive: -10.5%,
CC(=O)N1CCN(C(=O)C2(NC(=O)Nc3ccc(C)cc3)CCCCC2)CC1,,"inconclusive: 16.4 µM [activator, single point]"
O=C1SCCN1N=Cc1ccc([N+](=O)[O-])o1,,"inconclusive: 20.6 µM [falling, single point]"
O=C(COC(=O)CNC(=O)c1ccccc1Cl)Nc1cc(C(F)(F)F)ccc1Cl,,"inconclusive: 2.91 µM [activator, partial curve, poor fit]"

SMILES,"activity change, negative = inhibition",Potency
O=C(Cc1ccccc1F)Nc1ccc2c(c1)CCC2,,"inconclusive: 5.8 µM [activator, full curve]"
COc1cccc(/C=N/NC(=O)C(C)Cn2cnc3ccccc32)c1 (stereo not drawn),,"inconclusive: 20.6 µM [falling, partial curve, poor fit]"
O=C(c1ccccc1Br)N1N=C(c2ccccc2)CC1c1ccccc1F (stereo not drawn),,"inconclusive: 29.1 µM [falling, single point]"
CN(c1ccccc1)S(=O)(=O)c1cccc(NC(=O)C2=NNC(=O)CC2)c1,,"inconclusive: 18.4 µM [falling, partial curve]"
CC(C)Cc1ccc(C(=O)Nc2ccc(Cc3ccncc3)cc2)o1,,"inconclusive: 23.1 µM [falling, single point]"
O=[N+]([O-])c1ccc(F)cc1Oc1nc(-c2cccnc2)nc2ccccc12,,"inconclusive: 14.6 µM [falling, partial curve, poor fit]"
CCOC(=O)C1=C(CSc2nc3ccccc3s2)NC(=O)NC1c1ccc(OC)cc1 (stereo not drawn),,active: 5.8 µM
CCc1ccc(OCC(=O)N2CCc3ccccc32)cc1,,"inconclusive: 11.6 µM [activator, partial curve]"
O=C(CN1C(=O)c2ccccc2S1(=O)=O)c1cccc(Br)c1,inactive: -40.1%,
COc1ccc(-n2cc(-c3ccccc3)[nH]c2=S)cc1,inactive: 12.9%,
Cc1cc(C(=O)COC(=O)c2cccc(S(=O)(=O)N(C)C)c2)c(C)n1CC1CCCO1 (stereo not drawn),,"inconclusive: 23.1 µM [activator, partial curve]"
Cc1cc(NC(=O)c2noc3c2CCc2ccccc2-3)n(-c2ccccc2)n1,,"inconclusive: 5.8 µM [falling, single point]"
C=CCn1c(SCC(=O)NCC2CCCO2)nc2sc(C)c(C)c2c1=O (stereo not drawn),,"inconclusive: 10.3 µM [falling, partial curve, poor fit]"
Cc1ccc(CSc2nnc(SCC(=O)N/N=C/C=C/c3ccco3)s2)cc1,inactive: 10.1%,
CCCCNc1c(-c2ccc(OC)c(Sc3ccc(OC)cc3)c2)nc2cnccn12,,"inconclusive: 20.6 µM [falling, single point]"
CCC1(c2ccc(F)cc2)NC(=O)N(CC(=O)Nc2ccc(-c3nc4ccc(C)cc4s3)cc2)C1=O (stereo not drawn),,"inconclusive: 1.84 µM [activator, partial curve, poor fit]"
COc1ccc(N2CCN(Cc3nc4c(c(=O)[nH]c(=O)n4C)n3Cc3ccccc3C)CC2)cc1,,"inconclusive: 0.0052 µM [activator, full curve, poor fit]"
Cc1ccc2c(COC(=O)c3ccccc3Br)cc(=O)oc2c1,,"inconclusive: 18.4 µM [activator, partial curve]"
N#CC(C#N)=C(Nc1ccc(F)cc1)SCc1cccc(Br)c1,,active: 4.11 µM
COc1ccc(C(=O)OCc2c(-c3ccccc3)ncc3ccccc23)cc1,inactive: -19.2%,
Cc1cccc(OCC(=O)NCc2cc(C)nc3ccccc23)c1,inactive: -9.95%,

# As entered above.
# `Cc1cccc(OCC(=O)NCc2cc(C)nc3ccccc23)c1` | activity change, negative = inhibition: inactive: -9.95%
# `COc1ccc(C(=O)OCc2c(-c3ccccc3)ncc3ccccc23)cc1` | activity change, negative = inhibition: inactive: -19.2%
